{
  "source": "patent EP4574151A1",
  "about": "“INHIBITORS OF G12V-MUTATED RAS PROTEIN TO TREAT CANCER” (Personather Spolka Z Ograniczona Odpowiedzialnoscia, priority 2023, dated 2025)",
  "key": {"KRASG12V protein": {"target": "T1, KRASG12V protein (Homo sapiens, UniProt P01116, G12V)", "T1 construct": "host or cells: cancer cells (unnamed), according to a general remark", "experiment": "GTPase-Glo Assay (Promega), GTPase activity of mutated protein", "format": "biochemical", "details": "for ability to restore GTPase activity of mutated KRASG12V protein: 500 ng KRAS G12V, 500 ng RASA1, 10 µM GTP, 3.5 hours, room temperature"}, "RASWT": {"target": "RASWT (Homo sapiens, UniProt P01116)", "experiment": "GTPase-Glo Assay (Promega), GTPase activity of wild-type protein", "format": "biochemical", "details": "negative controls; even at high concentrations; in the presence of GAP or in its absence"}},
  "note": "Some of these results come from one statement about several compounds together.",
  "data": [
    {"compound": "O=C(Nc1ccc2c(c1)OCCO2)c1ccc2c(c1)C1C3CCC(C3)C1C(c1ccccc1)N2", "note": "(stereo not drawn) [PER154A]", "values": [
      {"measurement": "ability to restore GTPase activity of mutated KRASG12V protein", "setting": "KRASG12V protein", "result": "partially restore the GTPase activity"}
    ]},
    {"compound": "O=C(Nc1ccc(F)cc1)c1ccc2c(c1)C1C3CCC(C3)C1C(c1ccccc1)N2", "note": "(stereo not drawn) [PER160A]", "values": [
      {"measurement": "ability to restore GTPase activity of mutated KRASG12V protein", "setting": "KRASG12V protein", "result": "partially restore the GTPase activity"}
    ]},
    {"compound": "Cc1ccc(NC(=O)c2ccc3c(c2)C2C4CCC(C4)C2C(c2ccccc2)N3)cc1C", "note": "(stereo not drawn) [PER170A]", "values": [
      {"measurement": "ability to restore GTPase activity of mutated KRASG12V protein", "setting": "KRASG12V protein", "result": "partially restore the GTPase activity"}
    ]},
    {"compound": "O=C(Nc1ccc(Br)c(Cl)c1)c1ccc2c(c1)C1C3CCC(C3)C1C(c1ccccc1)N2", "note": "(stereo not drawn) [PER176A]", "values": [
      {"measurement": "ability to restore GTPase activity of mutated KRASG12V protein", "setting": "KRASG12V protein", "result": "partially restore the GTPase activity"}
    ]},
    {"compound": "c1ccc(Cn2c(-c3ccc(OCC(C4CCNCC4)n4c(-c5ccccc5)nc5ccccc54)cc3)nc3ccccc32)cc1", "note": "(stereo not drawn) [deltarasin, reference compound]", "values": [
      {"measurement": "influence on the GTPase activity of RASWT", "setting": "RASWT", "result": "did not show any influence"},
      {"measurement": "influence on the GTPase activity of RASG12V", "setting": "KRASG12V protein; negative controls, even at high concentrations, in the presence of GAP or in its absence", "result": "did not show any influence"}
    ]}
  ]
}
